For four molecules, binding results are on record in PMC11106421, “Myosin VI in the nucleolus of neurosecretory PC12 cells: its involvement in the maintenance of nucleolar structure and ribosome organization” (Frontiers in Physiology, 2024).

By UniProt entry, the sequences of proteins in these tests, tags left out. Where a name states a change or a piece, a line headed by the entry shows the natural chain unless it says otherwise. Chains listed by the source or under a name are the forms on record and can include a tag or linker. Residues count along the entry.
UniProt D4A5I9: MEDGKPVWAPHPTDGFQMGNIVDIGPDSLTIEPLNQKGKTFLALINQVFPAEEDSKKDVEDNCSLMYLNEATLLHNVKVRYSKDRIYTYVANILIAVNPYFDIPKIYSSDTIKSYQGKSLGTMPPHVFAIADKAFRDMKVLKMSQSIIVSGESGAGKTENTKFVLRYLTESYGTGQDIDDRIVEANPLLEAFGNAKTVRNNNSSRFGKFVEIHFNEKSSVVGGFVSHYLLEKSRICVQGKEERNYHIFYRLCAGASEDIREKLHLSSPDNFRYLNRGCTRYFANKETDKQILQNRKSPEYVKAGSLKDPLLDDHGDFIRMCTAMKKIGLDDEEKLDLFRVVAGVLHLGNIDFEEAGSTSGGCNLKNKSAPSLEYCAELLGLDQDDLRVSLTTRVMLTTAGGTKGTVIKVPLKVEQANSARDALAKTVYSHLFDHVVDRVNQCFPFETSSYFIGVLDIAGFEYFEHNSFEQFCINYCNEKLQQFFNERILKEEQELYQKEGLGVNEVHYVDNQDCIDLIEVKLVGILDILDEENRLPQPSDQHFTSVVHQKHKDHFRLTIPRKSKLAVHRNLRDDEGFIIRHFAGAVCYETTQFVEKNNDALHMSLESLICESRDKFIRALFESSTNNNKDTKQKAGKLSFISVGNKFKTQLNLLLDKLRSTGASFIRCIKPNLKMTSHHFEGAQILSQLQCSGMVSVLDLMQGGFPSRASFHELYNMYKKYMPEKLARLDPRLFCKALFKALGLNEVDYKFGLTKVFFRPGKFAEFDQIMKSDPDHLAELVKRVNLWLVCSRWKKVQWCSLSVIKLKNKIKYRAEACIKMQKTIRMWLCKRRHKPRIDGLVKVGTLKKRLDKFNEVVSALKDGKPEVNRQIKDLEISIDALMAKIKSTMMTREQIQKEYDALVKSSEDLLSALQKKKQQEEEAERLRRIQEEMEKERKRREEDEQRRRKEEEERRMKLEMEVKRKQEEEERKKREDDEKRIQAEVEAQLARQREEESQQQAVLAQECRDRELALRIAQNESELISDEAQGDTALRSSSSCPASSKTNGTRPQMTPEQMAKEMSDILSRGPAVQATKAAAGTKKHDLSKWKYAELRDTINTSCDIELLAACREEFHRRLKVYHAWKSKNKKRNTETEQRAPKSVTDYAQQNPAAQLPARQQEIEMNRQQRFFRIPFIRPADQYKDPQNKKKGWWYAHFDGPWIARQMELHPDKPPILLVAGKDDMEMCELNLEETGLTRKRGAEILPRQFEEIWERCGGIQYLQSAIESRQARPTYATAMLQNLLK
MVI C-terminal globular tail domain fused with GST (GST-MVI-GD): residues 1046-1285 of D4A5I9
UniProt O54889: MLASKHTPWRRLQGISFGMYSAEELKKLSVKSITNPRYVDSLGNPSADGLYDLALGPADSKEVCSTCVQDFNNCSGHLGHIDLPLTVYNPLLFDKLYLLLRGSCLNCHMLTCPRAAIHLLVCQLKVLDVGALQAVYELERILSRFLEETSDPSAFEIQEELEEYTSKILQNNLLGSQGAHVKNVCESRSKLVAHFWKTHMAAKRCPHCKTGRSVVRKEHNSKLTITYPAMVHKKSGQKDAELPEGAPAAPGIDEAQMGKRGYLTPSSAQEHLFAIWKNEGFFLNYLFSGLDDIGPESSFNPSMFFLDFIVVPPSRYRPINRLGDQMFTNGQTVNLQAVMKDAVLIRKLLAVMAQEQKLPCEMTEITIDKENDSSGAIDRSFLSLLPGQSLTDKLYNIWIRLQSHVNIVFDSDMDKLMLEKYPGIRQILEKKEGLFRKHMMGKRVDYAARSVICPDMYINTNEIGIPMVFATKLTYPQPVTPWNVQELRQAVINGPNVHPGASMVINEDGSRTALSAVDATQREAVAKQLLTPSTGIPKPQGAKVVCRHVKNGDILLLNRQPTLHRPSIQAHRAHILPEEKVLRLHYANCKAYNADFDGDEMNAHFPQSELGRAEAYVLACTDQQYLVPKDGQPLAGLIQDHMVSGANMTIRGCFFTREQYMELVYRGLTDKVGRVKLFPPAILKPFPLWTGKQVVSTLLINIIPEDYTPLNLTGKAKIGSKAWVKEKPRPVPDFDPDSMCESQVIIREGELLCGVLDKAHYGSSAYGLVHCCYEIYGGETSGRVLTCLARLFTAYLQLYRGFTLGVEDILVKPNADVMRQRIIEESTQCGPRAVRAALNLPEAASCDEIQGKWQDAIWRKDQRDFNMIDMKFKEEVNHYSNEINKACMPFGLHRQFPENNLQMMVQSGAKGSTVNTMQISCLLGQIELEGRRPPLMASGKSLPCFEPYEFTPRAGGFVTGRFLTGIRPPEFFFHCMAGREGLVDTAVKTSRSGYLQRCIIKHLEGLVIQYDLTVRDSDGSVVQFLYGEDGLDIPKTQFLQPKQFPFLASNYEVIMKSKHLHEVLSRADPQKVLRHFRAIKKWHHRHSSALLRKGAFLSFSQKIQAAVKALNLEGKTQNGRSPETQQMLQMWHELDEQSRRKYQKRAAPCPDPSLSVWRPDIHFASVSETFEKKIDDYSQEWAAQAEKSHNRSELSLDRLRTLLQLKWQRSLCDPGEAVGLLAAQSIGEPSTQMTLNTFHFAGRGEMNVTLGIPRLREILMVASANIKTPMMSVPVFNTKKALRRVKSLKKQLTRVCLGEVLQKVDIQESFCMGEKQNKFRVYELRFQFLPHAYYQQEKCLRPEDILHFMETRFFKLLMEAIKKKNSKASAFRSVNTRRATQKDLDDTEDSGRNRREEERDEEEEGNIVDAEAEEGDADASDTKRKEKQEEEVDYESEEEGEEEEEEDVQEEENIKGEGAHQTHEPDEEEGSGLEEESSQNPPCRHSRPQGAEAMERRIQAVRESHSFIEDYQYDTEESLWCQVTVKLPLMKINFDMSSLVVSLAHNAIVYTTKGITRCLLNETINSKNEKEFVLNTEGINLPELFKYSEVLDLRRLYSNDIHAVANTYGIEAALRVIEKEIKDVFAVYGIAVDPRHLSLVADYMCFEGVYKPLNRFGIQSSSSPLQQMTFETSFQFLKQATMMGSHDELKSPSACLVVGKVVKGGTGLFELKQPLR

No constants are given. Whether binding was seen depends on the method and setting. In cells and extracts the contact can be indirect. Some binding calls cover weakened binding; strength is not graded here.

The target of experiment [1] is myosin VI (MVI), endogenous in PC12 cells (rat (endogenous in PC12)) (UniProt D4A5I9). The experiment can be described thus: proximity ligation; Duolink in situ PLA on fixed PC12 cells, rabbit anti-MVI with mouse monoclonal antibodies to the partner; foci counted per nucleus.
Experiment [2] has the same target. The description is as above. This is another data set of the same source.
For experiment [3] the target is unchanged. The experiment can be described thus: co-IP; PC12 cell lysate, anti-MVI antibody (non-immunized rabbit IgG as control), A/G agarose beads, 4°C; 50 mM Tris pH 7.5, 150 mM NaCl, 2 mM EGTA, 0.1% Triton X-100, 2 mM MgCl2, 2 mM MgATP; immunoblotting. For orientation: A western blot detects proteins with antibodies after separation by electrophoresis.
Experiment [4] addresses MVI C-terminal globular tail domain fused with GST (GST-MVI-GD) (rat) (UniProt D4A5I9). Put plainly: pull-down; GST-MVI-GD or GST alone bound to Glutathione Sepharose 4B, incubated 4 h at 4°C with PC12 cell lysate precleared on GST beads; 50 mM Tris pH 7.5, 150 mM NaCl, 0.1% Triton X-100, 1 mM DTT, 2 mM EGTA; immunoblotting; only the target purified.

Turning to “Pol1 (RPA 194) (from UniProt O54889 1-1716)”, the binding result in experiment [1] is “binds”.

B1: UBF (upstream binding factor) (natural protein, rat (endogenous in PC12), UniProt P25977 1-764, looked up)
chain: MNGEADCPTDLEMAAPKGQDRWSQEDMLTLLECMKNNLPSNDSSKFKTTESHMDWEKVAFKDFSGDMCKLKWVEISNEVRKFRTLTELILDAQEHVKNPYKGKKLKKHPDFPKKPLTPYFRFFMEKRAKYAKLHPEMSNLDLTKILSKKYKELPEKKKMKYIQDFQREKQEFERNLARFREDHPDLIQNAKKSDIPEKPKTPQQLWYTHEKKVYLKVRPDATTKEVKDSLGKQWSQLSDKKRLKWIHKALEQRKEYEEIMRDYIQKHPELNISEEGITKSTLTKAERQLKDKFDGRPTKPPPNSYSLYCAELMANMKDVPSTERMVLCSQQWKLLSQKEKDAYHKKCDQKKKDYEVELLRFLESLPEEEQQRVLGEEKMLNINKKQTTSPASKKPSQEGGKGGSEKPKRPVSAMFIFSEEKRRQLQEERPELSESELTRLLARMWNDLSEKKKAKYKAREAALKAQSERKPGGEREDRGKLPESPKRAEEIWQQSVIGDYLARFKNDRVKALKAMEMTWNNMEKKEKLMWIKKAAEDQKRYERELSEMRAPPAATNSSKKMKFQGEPKKPPMNGYQKFSQELLSNGELNHLPLKERMVEIGSRWQRISQSQKEHYKKLAEEQQRQYKVHLDLWVKSLSPQDRAAYKEYISNKRKNMTKLRGPNPKSSRTTLQSKSESEEDDDEEDDDDDDEEEEEDDENGDSSEDGGDSSESSSEDESEDGDENEDDDDDEDDDEDDDEDEDNESEGSSSSSSSSGDSSDSDSN
notes: source: endogenous, PC12 cells (lysate or fixed cells)
Turning to B1, the binding result in experiment [2], in experiment [3] and in experiment [4] was “binds” throughout.

B2: B23 (also termed nucleophosmin, NPM1) (natural protein, rat (endogenous in PC12), UniProt P13084 1-292, looked up)
chain: MEDSMDMDMSPLRPQNYLFGCELKADKDYHFKVDNDENEHQLSLRTVSLGAGAKDELHIVEAEAMNYEGSPIKVTLATLKMSVQPTVSLGGFEITPPVVLRLKCGSGPVHISGQHLVAVEEDAESEDEDEEDVKLLGMSGKRSAPGGGNKVPQKKVKLDEDDDEDDEDDEDDEDDDDDDFDEEETEEKVPVKKSVRDTPAKNAQKSNQNGKDLKPSTPRSKGQESFKKQEKTPKTPKGPSSVEDIKAKMQASIEKGGSLPKVEAKFINYVKNCFRMTDQEAIQDLWQWRKSL
notes: B23 / nucleophosmin, endogenous in PC12 cells, detected with a mouse monoclonal anti-B23 antibody; source: endogenous, PC12 cells (lysate or fixed cells)
As to B2, the binding result in experiment [1], in experiment [3] and in experiment [4] was “binds” throughout.

B3: fibrillarin (natural protein, rat (endogenous in PC12), UniProt P22509 1-327, looked up)
chain: MKPGFSPRGGGFGGRGGFGDRGGRGGGRGGRGGFGGGRGGFGGGGRGRGGGGGGFRGRGGGGGRGGGFQSGGGRGRGGGRGGKRGNQSGKNVMVEPHRHEGVFICRGKEDALVTKNLVPGESVYGEKRVSISEGDDKIEYRAWNPFRSKLAAAILGGVDQIHIKPGAKVLYLGAASGTTVSHVSDIVGPDGLVYAVEFSHRSGRDLINLAKKRTNIIPVIEDARHPHKYRMLIAMVDVIFADVAQPDQTRIVALNAHTFLRNGGHFVISIKANCIDSTASAEAVFASEVKKMQQENMKPQEQLTLEPYERDHAVVVGVYRPPPKAKN
notes: fibrillarin, endogenous in PC12 cells, detected with a mouse monoclonal anti-fibrillarin antibody; source: endogenous, PC12 cells (lysate or fixed cells)
On to B3, for which the binding result in experiment [2] is listed as “binds”; in experiment [3], “binds weakly”; in experiment [4] it was “binds weakly”.
